Read-outs that look alike come from different tables or passages of the source. Out of some 3,300 compounds screened, about 95 (3%) showed an effect of 50% or more. This is one part of the list. Bridge positions count the residues as written; N and C are the ends. Square brackets hold non-standard residues; d marks the D form. Peptide text beside a SMILES is read from it. * marks the point of attachment. Ileψ(thiazoline)Cys = CC[C@H](C)[C@H](N)C1=N[C@H](C(=O)*)CS1; dOrn = NCCC[C@@H](N)C(=O)O
Tested on: HCoV-229E
Design: species or system Huh-7; HTS, protection from HCoV-229E induced cell death, luminescent cell viability (CellCounting-Lite 2.0), inhibition rate
Conditions: 24 h post infection, 1 h compound pre-incubation, 10 µM, inhibitor

Row | Structure (SMILES) | 229E Inhibition rate | 229E Inhibition rate (229E Inhibition rate, 24 h)
1 | N[C@@H](CCC(=O)O)C(=O)N[C@@H](Cc1c[nH]c2ccccc12)C(=O)O [Oglufanide] (H-Glu-Trp-OH) | 42.6% | –
2 | C[C@H](CCC(=O)NCC(=O)O)[C@H]1CC[C@H]2[C@@H]3[C@H](O)C[C@@H]4C[C@H](O)CC[C@]4(C)[C@H]3C[C@H](O)[C@]12C [Glycocholic acid] | – | 22.3%
3 | CC(C)c1cc2c(c(O)c1O)[C@@]13CCCC(C)(C)[C@@H]1C[C@@H]2OC3=O [Carnosol] | 0% | –
4 | CS/C=C/C(=O)NCCO[C@@H]1O[C@H](CO)[C@@H](O)[C@H](O)[C@H]1O [Entadamide-A-β-D-glucopyranoside] | 10.7% | –
5 | COc1cc([C@@H]2OC[C@@H]3[C@H]2CO[C@H]3c2cc(OC)c(O)c(OC)c2)cc(OC)c1O [(-)-Syringaresinol] | 16.7% | –
6 | C[C@@H]1CC[C@@]2(OC1)O[C@H]1C[C@H]3[C@@H]4CC=C5C[C@@H](O)C[C@@H](O[C@@H]6O[C@H](C)[C@H](O)[C@H](O[C@@H]7OC[C@@H](O)[C@H](O)[C@H]7O)[C@H]6O[C@@H]6O[C@@H](C)[C@H](O)[C@@H](O)[C@H]6O)[C@]5(C)[C@H]4CC[C@]3(C)[C@H]1[C@@H]2C [Ophiopogonin D'] | – | 6.6%
7 | O=c1ccc2cc(O)c(O)cc2o1 [Esculetin] | 35.1% | –
8 | C[C@H](CCC(=O)O)[C@H]1CC[C@H]2[C@@H]3[C@H](O)CC4=CC(=O)CC[C@]4(C)[C@H]3CC[C@]12C [3-Oxo-7-hydroxychol-4-enoic acid] | 11.3% | –
9 | COc1ccc(-c2cc(=O)c3c(O)cc(O[C@@H]4O[C@H](CO)[C@@H](O)[C@H](O)[C@H]4O)cc3o2)cc1 [Tilianin] | 31.2% | –
10 | CC1CNC(=O)NC1=O (centres unmarked) [5,6-Dihydro-5-methyluracil] | 48.7% | –
11 | Cc1cc(O)c2c(c1)C(=O)c1cccc(O)c1C2=O [Chrysophanol] | 29.5% | –
12 | O=c1cc(-c2ccccc2)c2cc(O)c(O)cc2o1 [Nordalbergin] | 17.6% | –
13 | O=C(O)CNC(=O)/C=C/c1ccccc1 [Cinnamoylglycine] | 41.7% | –
14 | COc1cc(O[C@@H]2O[C@H](CO[C@@H]3O[C@H](CO)[C@@H](O)[C@H](O)[C@H]3O)[C@@H](O)[C@H](O)[C@H]2O)c2c(O)c3c(=O)cc(C)oc3cc2c1 [Rubrofusarin gentiobioside] | 20.7% | –
15 | Cn1cnc2[nH]c(=O)[nH]c(=O)c21 [7-Methylxanthine] | 7.8% | –
16 | c1ccc2[nH]ccc2c1 [Indole] | 7.7% | –
17 | Oc1ccc2c(c1)OC[C@H]1c3cc4c(cc3O[C@@H]21)OCO4 [Maackiain] | – | 20.8%
18 | N[C@@H](Cc1c[nH]c2ccc(O)cc12)C(=O)O [L-5-Hydroxytryptophan] | – | 38.4%
19 | OCC1=C[C@@H](O)[C@]2(O[C@@H]3O[C@H](CO)[C@@H](O)[C@H](O)[C@H]3O)C=CO[C@@H](O[C@@H]3O[C@H](CO)[C@@H](O)[C@H](O)[C@H]3O)[C@H]12 [Melittoside] | 12.4% | –
20 | O=c1c(O)c(-c2ccc(O)cc2)oc2cc(O)ccc12 [3,7,4'-Trihydroxyflavone] | 13% | –

Row | Structure (SMILES) | 229E Inhibition rate | 229E Inhibition rate (229E Inhibition rate, 24 h)
21 | COc1cc(OC)c(CCC(=O)c2ccc(O)cc2)c(OC)c1 [Loureirin B] | 16% | –
22 | CCCCCCC/C=C/C(=O)N1C(=O)C(C(C)=O)=C(O)[C@H]1CC(C)C [Reutericyclin] | 0.8% | –
23 | Cc1cc(O)cc(O)c1 [Orcinol] | 7% | –
24 | Cc1coc2c1C(=O)c1ccc3c(c1C2=O)CCCC3(C)C [Isotanshinone IIA] | 12.5% | –
25 | COc1ccccc1OCC(O)CO (centres unmarked) [Guaifenesin] | 21.2% | –
26 | O=C1C[C@@H](c2ccc(O)cc2)Oc2cc(O[C@@H]3O[C@H](CO)[C@@H](O)[C@H](O)[C@H]3O)ccc21 [Neoliquiritin] | 26.2% | –
27 | NC[C@@H]1O[C@H](O[C@H]2[C@@H](O)[C@H](O[C@@H]3[C@@H](O)[C@H](N)C[C@H](N)[C@H]3O[C@H]3O[C@H](CO)[C@@H](O)[C@H](O)[C@H]3N)O[C@@H]2CO)[C@H](N)[C@@H](O)[C@@H]1O [Paromomycin (sulfate)] | 8.2% | –
28 | CC[C@]1(O)C[C@H]2CN(CCc3c([nH]c4ccccc34)[C@@](C(=O)OC)(c3cc4c(cc3OC)N(C=O)[C@H]3[C@@](O)(C(=O)OC)[C@H](OC(C)=O)[C@]5(CC)C=CCN6CC[C@]43[C@@H]65)C2)C1 [Vincristine (sulfate)] | 12% | –
29 | CN(C)Cc1c[nH]c2ccccc12 [Gramine] | 0% | –
30 | CC(=O)OC[C@@]12CC[C@@H](C)[C@](C)(CCC3=CC(=O)OC3)[C@H]1C[C@H](O)C=C2CO [Blinin] | 9.8% | –
31 | O=C(O)c1ccccc1O [Sodium Salicylate] | – | 19.4%
32 | Oc1ccc(/C=C/c2cc(O)cc(O)c2)cc1 [Resveratrol] | 10.1% | –
33 | CC(=O)OCC[N+](C)(C)C [Acetylcholine (chloride)] | – | 35.4%
34 | CCCCCCCCCCCCCCCCC(=O)OC [Methyl heptadecanoate] | 20.9% | –
35 | C=C1C(=O)[C@]23[C@H](O)[C@H]1CC[C@H]2[C@@]12CO[C@]3(O)[C@@H](O)[C@@H]1C(C)(C)CC[C@@H]2O [Oridonin] | 0% | –
36 | NC(CCC(=O)O)C(=O)O (racemic) [DL-Glutamic acid] | 6.9% | –
37 | COc1ccc([C@@H]2OC[C@H]3[C@@H]2CO[C@@H]3c2ccc3c(c2)OCO3)cc1OC [Fargesin] | 13.4% | –
38 | O=C(O)C[C@@](O)(C(=O)O)[C@H](O)C(=O)O [(-)-Hydroxycitric acid] | 12.3% | –
39 | CC(=O)OC/C1=C\[C@H]2[C@@H](OC(=O)/C=C/c3ccccc3)[C@@H](C)C[C@]2(OC(C)=O)C(=O)/C(C)=C/[C@@H]2[C@H](CC1)C2(C)C [Euphorbia factor L7a] | 90.9% | –
40 | CC(=O)OCC1=C[C@@H]2OC(=O)C3=CO[C@@H](O[C@@H]4O[C@H](CO)[C@@H](O)[C@H](O)[C@H]4O)[C@H]1[C@@H]32 [Asperuloside] | 8% | –

Row | Structure (SMILES) | 229E Inhibition rate | 229E Inhibition rate (229E Inhibition rate, 24 h)
41 | O=C(CCc1ccc(O)cc1)c1c(O)cc(O)cc1O [Phloretin] | 35.3% | –
42 | C[C@@H]1CC[C@@]2(OC1)O[C@H]1C[C@H]3[C@@H]4CC=C5C[C@@H](O[C@@H]6O[C@H](CO)[C@@H](O[C@@H]7O[C@H](CO)[C@@H](O)[C@H](O)[C@H]7O)[C@H](O)[C@H]6O[C@@H]6O[C@@H](C)[C@H](O)[C@@H](O)[C@H]6O)CC[C@]5(C)[C@H]4CC[C@]3(C)[C@H]1[C@@H]2C [Deltonin] | 12.9% | –
43 | CC[C@H](C)[C@H](N)C1=N[C@H](C(=O)N[C@@H](CC(C)C)C(=O)N[C@H](CCC(=O)O)C(=O)N[C@H](C(=O)N[C@H]2CCCCNC(=O)[C@H](CC(N)=O)NC(=O)[C@@H](CC(=O)O)NC(=O)[C@H](Cc3cnc[nH]3)NC(=O)[C@@H](Cc3ccccc3)NC(=O)[C@H]([C@@H](C)CC)NC(=O)[C@@H](CCCN)NC2=O)[C@@H](C)CC)CS1 [Bacitracin] ({Ileψ(thiazoline)Cys}-L[dE]IK[dOrn]I[dF]H[dD]N; lactam 4-C) | 6.9% | –
44 | CC(C)=CCC[C@](C)(O)[C@H]1CC[C@]2(C)[C@@H]1[C@H](O)C[C@@H]1[C@@]3(C)C[C@@H](O)[C@H](O[C@@H]4O[C@H](CO)[C@@H](O)[C@H](O)[C@H]4O[C@@H]4O[C@H](CO)[C@@H](O)[C@H](O)[C@H]4O)C(C)(C)[C@@H]3CC[C@]12C [Gypenoside L] | 61.5% | –
45 | O=C(c1ccccc1)C(O)c1ccccc1 (centres unmarked) [Benzoin] | 34.2% | –
46 | Cc1c[nH]c2ccccc12 [Skatole] | 10.2% | –
47 | c1ccc(CSSCc2ccccc2)cc1 [Dibenzyl disulfide] | 23.1% | –
48 | CC(S)C(=O)NCC(=O)O (centres unmarked) [Tiopronin] | 17.9% | –
49 | O=c1ccc2ccc(O[C@@H]3O[C@H](CO)[C@@H](O)[C@H](O)[C@H]3O)cc2o1 [Skimmin] | 17.9% | –
50 | Nc1ncnc2c1ncn2[C@@H]1O[C@H](COP(=O)(O)O)[C@@H](O)[C@H]1O [Adenosine monophosphate] | – | 0%
51 | CC(C)CCCCCCCCCCCC(=O)O [13-Methyltetradecanoic acid] | 23.2% | –
52 | O=C1CC(c2ccc(O)cc2)Oc2cc(O)cc(O)c21 (racemic) [(±)-Naringenin] | 9.9% | –
53 | COc1cc(/C=C/C(=O)OC(C)C)ccc1O [Isopropyl ferulate] | 36.5% | –
54 | O=C(/C=C/c1ccc(O[C@@H]2O[C@H](CO)[C@@H](O)[C@H](O)[C@H]2O[C@@H]2OC[C@](O)(CO)[C@H]2O)cc1)c1ccc(O)cc1O [Isoliquiritin apioside] | 63.8% | –
55 | Oc1cc(O)c2c(c1)O[C@H](c1cc(O)c(O)c(O)c1)[C@H](O)C2 [(-)-Epigallocatechin] | 10.4% | –
56 | CC(=O)OC[C@H](N)C(=O)O [O-Acetylserine] | 42.6% | –
57 | O=C(c1ccc(O)cc1)c1c(O)cc(O)c([C@@H]2O[C@H](CO)[C@@H](O)[C@H](O)[C@H]2O)c1O [Iriflophenone 3-C-glucoside] | 18.4% | –
58 | C[N+](C)(C)CCO [L-Uridine] | 18.9% | –
59 | CC(C)(CO)[C@@H](O)C(=O)NCCC(=O)O [D-Pantothenic acid] | – | 20.7%

Given with tabs: entries from further up.
Row	Structure (SMILES)	229E Inhibition rate	229E Inhibition rate (229E Inhibition rate, 24 h)
44	CC(C)=CCC[C@](C)(O)[C@H]1CC[C@]2(C)[C@@H]1[C@H](O)C[C@@H]1[C@@]3(C)C[C@@H](O)[C@H](O[C@@H]4O[C@H](CO)[C@@H](O)[C@H](O)[C@H]4O[C@@H]4O[C@H](CO)[C@@H](O)[C@H](O)[C@H]4O)C(C)(C)[C@@H]3CC[C@]12C [Gypenoside L]	61.5%	–
45	O=C(c1ccccc1)C(O)c1ccccc1 (centres unmarked) [Benzoin]	34.2%	–
